Assay results as given in PMC5282884.
Results are given in words; binding and its absence hold for the method and conditions named. In cells and extracts the contact can be indirect. Some binding calls cover weakened binding; strength is not graded here. For some assays here: Where a sequence is shown, tags or fusion partners need not be part of it. Each block holds one binder with its values, some of them ahead of it.

Assays:
[1] = biological target: T1, Nuclear Receptor-Interacting Protein 2 (NRIP2) with Myc-Tag (human) (UniProt Q9BQI9); assay: co-IP; lysates from NRIP2-overexpressing SGC cancer cells or control cells; precipitated with myc-tag antibody agarose beads, western blot with anti-RORβ antibodies; normal rabbit IgG agarose beads as negative control; RIPA lysis buffer with 1% NP-40, 0.25% deoxycholic acid, 5 mM DTT, 4 °C
T1 sequence: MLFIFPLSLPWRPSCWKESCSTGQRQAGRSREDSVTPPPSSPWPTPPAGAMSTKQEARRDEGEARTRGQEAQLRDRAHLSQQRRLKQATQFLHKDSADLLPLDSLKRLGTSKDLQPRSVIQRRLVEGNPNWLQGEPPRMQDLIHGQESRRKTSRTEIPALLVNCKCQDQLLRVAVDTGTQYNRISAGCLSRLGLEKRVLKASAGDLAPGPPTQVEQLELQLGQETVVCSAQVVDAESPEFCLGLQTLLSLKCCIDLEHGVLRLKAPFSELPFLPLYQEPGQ

[2] = biological target: T2, endogenous RORβ (human (endogenous in P1 primary colorectal cancer cells)) (UniProt Q92753); assay: co-IP; endogenous proteins; lysates from P1 cells without treatment with protease inhibitor cocktails; precipitated with RORβ antibodies or mouse IgG (control), western blot with anti-NRIP2 antibodies
T2 sequence: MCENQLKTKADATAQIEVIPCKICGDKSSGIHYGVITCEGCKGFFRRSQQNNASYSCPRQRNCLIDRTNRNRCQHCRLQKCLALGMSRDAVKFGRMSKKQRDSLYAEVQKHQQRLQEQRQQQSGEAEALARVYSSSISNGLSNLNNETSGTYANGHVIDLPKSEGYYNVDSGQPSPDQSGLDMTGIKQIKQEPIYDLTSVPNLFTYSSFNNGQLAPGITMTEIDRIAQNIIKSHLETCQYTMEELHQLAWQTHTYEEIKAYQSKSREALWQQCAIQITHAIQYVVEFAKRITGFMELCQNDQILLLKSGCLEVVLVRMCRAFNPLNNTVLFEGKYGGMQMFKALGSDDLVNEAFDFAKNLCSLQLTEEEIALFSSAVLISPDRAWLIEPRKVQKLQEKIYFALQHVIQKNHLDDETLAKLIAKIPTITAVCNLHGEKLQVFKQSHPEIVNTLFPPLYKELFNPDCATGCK

- binding [1]: binds
B1: retinoic acid-related orphan receptor β (RORβ) (protein, UniProt Q92753 1-470)
chain: T2 sequence

- binding [2]: binds
B2: endogenous NRIP2 (protein, UniProt Q9BQI9 1-281)
chain: T1 sequence
